PubChem BioAssay AID1053208 | Peter MacCallum Cancer Centre, 2014
The whole screen tested about 17,000 reagents; below is a random part of them. Over the whole deposit, 788 (4.7%) were called active. 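Calls rest on z-score classes alone; an extra cut-off of viability at most 70% of control was not applied to them.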 A number with no mark means an inactive call.

Aim: 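Find knock-downs that sensitise mouse osteosarcoma cells to doxorubicin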 (primary screen)
System: mouse osteosarcoma cells, early-passage culture from an engineered mouse model of fibroblastic bone tumour
Reagent: siRNA pool against mouse genes, 40 nM
Duration: about 120 h (48 h before drug, then 72 h with drug)
Treatment: doxorubicin 100 nM for 72 h, roughly 30-40% inhibitory dose
Measurement: 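Viability read as ATP luminescence after 72 h of 100 nM doxorubicin or none, duplicate wells averaged, scaled to non-targeting siRNA, then expressed as robust z-scores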
Direction: viability z-score with doxorubicin and doxorubicin viability vs non-targeting: higher = more viable cells under doxorubicin; viability z-score without drug: higher = more viable cells with knock-down alone; z-score of drug to no-drug ratio: higher = less drug sensitisation by knock-down
Call rule: 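a pool counts as active when its viability z-score with doxorubicin is -2 or below and its z-score without drug lies between -2 and 2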

Gene | combined z-score class | viability z-score with doxorubicin | viability z-score without drug | z-score of drug to no-drug ratio | doxorubicin viability vs non-targeting
Zfp652 (zinc finger protein 652) | no change with or without drug | 0 | 0.17 | 0 | 0.94
Ppp2r5e (protein phosphatase 2, regulatory subunit B', epsilon) | no change with or without drug | -0.79 | 0.84 | -1.24 | 0.87
Mpv17 (MpV17 mitochondrial inner membrane protein) | no change with or without drug | 0 | -1.52 | 1.24 | 0.94
Dynlt4 (dynein light chain Tctex-type 4) | no change with or without drug | -0.45 | -0.84 | 0.22 | 0.9
Slc36a3 | no change with or without drug | -1.46 | -0.17 | -1.35 | 0.81
Ets2 (Ets proto-oncogene 2, transcription factor) | no change with or without drug | 1.12 | 0.51 | 0.9 | 1.04
4930433N12Rik (RIKEN cDNA 4930433N12 gene) | no change with or without drug | -0.45 | 1.35 | -1.24 | 0.9
B630019K06Rik (RIKEN cDNA B630019K06 gene) | no change with or without drug | -1.12 | -1.18 | -0.34 | 0.84
Selp (selectin, platelet) | no change with or without drug | -1.57 | -0.84 | -1.01 | 0.8

Targets listed so far whose gene name starts with S or s:
Gene | combined z-score class | viability z-score with doxorubicin | viability z-score without drug | z-score of drug to no-drug ratio | doxorubicin viability vs non-targeting
Slc36a3 | no change with or without drug | -1.46 | -0.17 | -1.35 | 0.81
Selp (selectin, platelet) | no change with or without drug | -1.57 | -0.84 | -1.01 | 0.8

The list goes on:
Gene | combined z-score class | viability z-score with doxorubicin | viability z-score without drug | z-score of drug to no-drug ratio | doxorubicin viability vs non-targeting
Lhx4 (LIM homeobox protein 4) | low cell count with doxorubicin only (active) | -2.47 | 0.34 | -2.7 | 0.72
Ablim3 (actin binding LIM protein family, member 3) | no change with or without drug | 0.67 | 1.85 | -0.45 | 1
Dusp13b (dual specificity phosphatase 13B) | no change with or without drug | 0.34 | 0.84 | -0.11 | 0.97
Tyw2 (tRNA wybutosine-synthesizing protein 2) | no change with or without drug | 0.45 | 0 | 0.56 | 0.98
Spata31d1a (spermatogenesis associated 31 subfamily D, member 1A) | no change with or without drug | -1.12 | 0.34 | -1.24 | 0.84
Slc7a2 | no change with or without drug | 1.69 | 1.35 | 0.9 | 1.09
Myf5 (myogenic factor 5) | no change with or without drug | 1.12 | 0.17 | 1.12 | 1.04
Or4g16 (olfactory receptor family 4 subfamily G member 16) | no change with or without drug | -0.11 | -1.18 | 0.9 | 0.93
Terf1 (telomeric repeat binding factor 1) | no change with or without drug | 0.11 | 1.52 | -0.79 | 0.95
Myh8 (myosin, heavy polypeptide 8, skeletal muscle, perinatal) | no change with or without drug | -1.12 | -1.52 | 0 | 0.84
Apip (APAF1 interacting protein) | no change with or without drug | -1.8 | -1.52 | -0.79 | 0.78
